The values that follow come from publication PMC8152475 (Biomedicines, 2021).

Protein sequences, listed by entry. Tags and fused reporters are not part of them. Residues count along the entry.
UniProt P9WIN9, residues 24-228: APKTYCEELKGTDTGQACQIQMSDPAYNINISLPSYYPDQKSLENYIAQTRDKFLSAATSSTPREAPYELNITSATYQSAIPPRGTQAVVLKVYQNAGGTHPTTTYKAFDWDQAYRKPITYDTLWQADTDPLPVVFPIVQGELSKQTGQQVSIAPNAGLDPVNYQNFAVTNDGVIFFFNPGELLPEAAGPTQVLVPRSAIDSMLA
UniProt P14598: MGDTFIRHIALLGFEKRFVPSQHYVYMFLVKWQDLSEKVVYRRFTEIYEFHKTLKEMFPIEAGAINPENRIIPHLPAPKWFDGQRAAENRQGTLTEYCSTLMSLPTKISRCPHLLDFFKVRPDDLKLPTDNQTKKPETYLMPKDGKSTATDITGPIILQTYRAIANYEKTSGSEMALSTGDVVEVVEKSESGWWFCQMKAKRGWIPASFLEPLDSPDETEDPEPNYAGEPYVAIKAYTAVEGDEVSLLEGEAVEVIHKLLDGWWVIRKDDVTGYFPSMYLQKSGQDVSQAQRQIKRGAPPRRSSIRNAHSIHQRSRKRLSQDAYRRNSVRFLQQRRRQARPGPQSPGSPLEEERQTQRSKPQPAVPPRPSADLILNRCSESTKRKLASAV
UniProt P31749: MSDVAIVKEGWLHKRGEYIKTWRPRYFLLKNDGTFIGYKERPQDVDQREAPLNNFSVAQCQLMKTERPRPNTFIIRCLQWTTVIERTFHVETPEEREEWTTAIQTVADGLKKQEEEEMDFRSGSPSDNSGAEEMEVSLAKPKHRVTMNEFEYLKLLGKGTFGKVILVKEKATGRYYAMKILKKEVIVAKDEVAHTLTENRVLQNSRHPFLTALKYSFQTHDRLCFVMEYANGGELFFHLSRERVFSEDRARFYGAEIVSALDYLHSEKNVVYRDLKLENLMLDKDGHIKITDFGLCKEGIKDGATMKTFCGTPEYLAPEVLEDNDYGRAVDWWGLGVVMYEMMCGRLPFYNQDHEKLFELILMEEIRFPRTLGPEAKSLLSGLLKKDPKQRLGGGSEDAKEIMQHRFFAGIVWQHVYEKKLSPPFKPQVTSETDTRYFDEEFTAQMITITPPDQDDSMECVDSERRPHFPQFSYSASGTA
UniProt Q9UHD2: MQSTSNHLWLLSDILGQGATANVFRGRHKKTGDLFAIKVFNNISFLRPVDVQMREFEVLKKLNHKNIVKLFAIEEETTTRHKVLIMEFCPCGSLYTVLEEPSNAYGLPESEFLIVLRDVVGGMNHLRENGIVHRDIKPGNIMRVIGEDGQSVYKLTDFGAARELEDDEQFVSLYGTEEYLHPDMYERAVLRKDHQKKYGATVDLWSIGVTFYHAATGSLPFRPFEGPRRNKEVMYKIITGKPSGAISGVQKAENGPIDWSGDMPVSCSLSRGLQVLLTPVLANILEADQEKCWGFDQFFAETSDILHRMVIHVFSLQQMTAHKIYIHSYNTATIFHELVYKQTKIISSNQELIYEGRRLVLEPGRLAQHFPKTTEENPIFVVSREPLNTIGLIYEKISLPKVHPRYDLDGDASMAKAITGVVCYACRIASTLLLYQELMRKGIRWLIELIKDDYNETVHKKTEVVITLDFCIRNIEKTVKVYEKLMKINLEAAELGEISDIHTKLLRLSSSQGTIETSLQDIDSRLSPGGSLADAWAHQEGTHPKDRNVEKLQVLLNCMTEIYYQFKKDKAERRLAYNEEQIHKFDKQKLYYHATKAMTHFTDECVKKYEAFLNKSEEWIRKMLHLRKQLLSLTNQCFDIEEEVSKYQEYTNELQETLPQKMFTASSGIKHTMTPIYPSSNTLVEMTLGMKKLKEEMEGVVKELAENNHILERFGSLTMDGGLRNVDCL
UniProt Q9Y4K3: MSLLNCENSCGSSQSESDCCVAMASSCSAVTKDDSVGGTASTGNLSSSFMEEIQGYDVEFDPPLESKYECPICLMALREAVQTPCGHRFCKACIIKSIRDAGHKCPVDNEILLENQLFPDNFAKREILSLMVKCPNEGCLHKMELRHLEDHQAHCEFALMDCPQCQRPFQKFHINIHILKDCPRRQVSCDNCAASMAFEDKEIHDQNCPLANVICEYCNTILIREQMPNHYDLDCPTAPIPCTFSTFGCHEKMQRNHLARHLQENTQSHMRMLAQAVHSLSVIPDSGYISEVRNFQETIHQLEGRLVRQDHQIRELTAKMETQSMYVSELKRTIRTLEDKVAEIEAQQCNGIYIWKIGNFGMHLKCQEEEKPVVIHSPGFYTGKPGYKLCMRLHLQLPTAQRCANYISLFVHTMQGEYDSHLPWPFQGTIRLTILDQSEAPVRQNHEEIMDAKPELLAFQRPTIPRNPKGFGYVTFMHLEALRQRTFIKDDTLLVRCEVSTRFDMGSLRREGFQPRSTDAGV
UniProt Q13546: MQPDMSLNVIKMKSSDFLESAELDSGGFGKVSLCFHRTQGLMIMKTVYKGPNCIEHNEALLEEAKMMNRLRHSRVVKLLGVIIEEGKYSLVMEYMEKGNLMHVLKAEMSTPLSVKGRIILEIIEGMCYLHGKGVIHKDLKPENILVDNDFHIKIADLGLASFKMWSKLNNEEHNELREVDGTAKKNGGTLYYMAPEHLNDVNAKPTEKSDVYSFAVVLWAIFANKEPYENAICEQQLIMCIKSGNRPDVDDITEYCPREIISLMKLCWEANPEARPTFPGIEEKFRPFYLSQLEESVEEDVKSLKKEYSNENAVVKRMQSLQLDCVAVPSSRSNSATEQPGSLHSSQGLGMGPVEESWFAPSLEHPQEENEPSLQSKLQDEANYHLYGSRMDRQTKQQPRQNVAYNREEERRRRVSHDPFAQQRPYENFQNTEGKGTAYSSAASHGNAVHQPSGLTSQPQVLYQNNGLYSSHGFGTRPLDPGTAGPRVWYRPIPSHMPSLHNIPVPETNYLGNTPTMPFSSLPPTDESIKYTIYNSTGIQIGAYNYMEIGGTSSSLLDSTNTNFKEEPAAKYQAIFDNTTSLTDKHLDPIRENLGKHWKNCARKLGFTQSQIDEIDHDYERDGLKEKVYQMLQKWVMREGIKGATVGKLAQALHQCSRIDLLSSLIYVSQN

Read-outs that look alike come from different tables or passages of the source. These are yes or no findings as the source states them, for the method shown. In cells and extracts the contact can be indirect. These calls come from enrichment with a bait or labelling near it, and not all partners need be listed. For some assays here: Where a sequence is shown, tags or fusion partners need not be part of it.

Holding throughout (assay): affinity purification with mass spectrometry; only the target purified
Assay [1] deals with T1, recombinant MPT63 (rMPT63) (Mycobacterium tuberculosis H37Rv) (UniProt P9WIP1).
T1 sequence: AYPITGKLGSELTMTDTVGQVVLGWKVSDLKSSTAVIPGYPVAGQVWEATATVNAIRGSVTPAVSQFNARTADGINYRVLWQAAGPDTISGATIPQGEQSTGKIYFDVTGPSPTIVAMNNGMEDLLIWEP

Assay [2] addresses recombinant MPT64 (rMPT64) (Mycobacterium tuberculosis H37Rv) (UniProt P9WIN9).
Assay [3] shares this target. This is another data set of the same source.

For the molecule “Neutrophil cytosol factor 1 (p47phox), endogenous in THP-1 (from UniProt P14598 1-390)”, the binding entry in assay [1] was “binds”.
The same measure, in the same setting: next, “RAC-alpha serine/threonine-protein kinase (AKT), endogenous in THP-1 (from UniProt P31749 1-480)”: “binds”.
As to “TANK-binding kinase (TBK1), endogenous in THP-1 (from UniProt Q9UHD2 1-729)”, the binding result in assay [1] and in assay [2] was “binds” throughout.
“TNF receptor associated factor 6 (TRAF6), endogenous in THP-1 (from UniProt Q9Y4K3 1-522)”: the binding result in assay [2] is listed as “binds”.
On the same count and under the same terms, in the case of “protein kinase Cα (PKCα), endogenous in THP-1 (from UniProt P17252 1-672)” it was “binds”.
With “receptor-interacting serine/threonine-protein kinase 1 (RIP1), endogenous in THP-1 (from UniProt Q13546 1-671)”, in assay [1], the binding result is “binds”.

B1: hexokinase 2 (HK2), endogenous in THP-1 (protein, UniProt P52789 1-917)
chain: MIASHLLAYFFTELNHDQVQKVDQYLYHMRLSDETLLEISKRFRKEMEKGLGATTHPTAAVKMLPTFVRSTPDGTEHGEFLALDLGGTNFRVLWVKVTDNGLQKVEMENQIYAIPEDIMRGSGTQLFDHIAECLANFMDKLQIKDKKLPLGFTFSFPCHQTKLDESFLVSWTKGFKSSGVEGRDVVALIRKAIQRRGDFDIDIVAVVNDTVGTMMTCGYDDHNCEIGLIVGTGSNACYMEEMRHIDMVEGDEGRMCINMEWGAFGDDGSLNDIRTEFDQEIDMGSLNPGKQLFEKMISGMYMGELVRLILVKMAKEELLFGGKLSPELLNTGRFETKDISDIEGEKDGIRKAREVLMRLGLDPTQEDCVATHRICQIVSTRSASLCAATLAAVLQRIKENKGEERLRSTIGVDGSVYKKHPHFAKRLHKTVRRLVPGCDVRFLRSEDGSGKGAAMVTAVAYRLADQHRARQKTLEHLQLSHDQLLEVKRRMKVEMERGLSKETHASAPVKMLPTYVCATPDGTEKGDFLALDLGGTNFRVLLVRVRNGKWGGVEMHNKIYAIPQEVMHGTGDELFDHIVQCIADFLEYMGMKGVSLPLGFTFSFPCQQNSLDESILLKWTKGFKASGCEGEDVVTLLKEAIHRREEFDLDVVAVVNDTVGTMMTCGFEDPHCEVGLIVGTGSNACYMEEMRNVELVEGEEGRMCVNMEWGAFGDNGCLDDFRTEFDVAVDELSLNPGKQRFEKMISGMYLGEIVRNILIDFTKRGLLFRGRISERLKTRGIFETKFLSQIESDCLALLQVRAILQHLGLESTCDDSIIVKEVCTVVARRAAQLCGAGMAAVVDRIRENRGLDALKVTVGVDGTLYKLHPHFAKVMHETVKDLAPKCDVSFLQSEDGSGKGAALITAVACRIREAGQR
With B1, the binding entry in assay [3] is recorded as “binds”.
